{
  "source": "patent US20170095456A1",
  "about": "“Therapeutic and Method of Use” (priority 2016, published 2017)",
  "origin": "cited, not measured here",
  "key": {"peritoneal fibrosis": {"system": "peritoneal fibrosis", "details": "rat model for peritoneal dialysis; by inhibiting the activation of Rho GTPases (Xiang, et al., 2016)"}, "endometriotic lesions": {"system": "endometriotic lesions", "details": "mouse model (Ren, et al., 2016)"}},
  "note": "At least one structure is not confirmed: it was looked up by name or label, or the drawing left a doubt.",
  "data": [
    {"smiles": "CO[C@H]1C[C@@H]2CC[C@@H](C)[C@@](O)(O2)C(=O)C(=O)N2CCCC[C@H]2C(=O)O[C@H]([C@H](C)C[C@@H]2CC[C@@H](O)[C@H](OC)C2)CC(=O)[C@H](C)/C=C(\\C)[C@@H](O)[C@@H](OC)C(=O)[C@H](C)C[C@H](C)/C=C/C=C/C=C/1C", "note": "[Rapamycin]", "values": [
      {"measurement": "prevention of peritoneal fibrosis", "setting": "peritoneal fibrosis", "value": "prevent peritoneal fibrosis"},
      {"measurement": "continued development of endometriotic lesions", "setting": "endometriotic lesions", "value": "significantly attenuate the continued development of endometriotic lesions"}
    ]}
  ]
}
